# Laboratory results taken from article PMC7819943, “Rice protein-binding microarrays: a tool to detect cis-acting elements near promoter regions in rice”.
# The other results are listed elsewhere or left out.
# Target: T1, OsSMF1 (Oryza sativa, UniProt Q6ZLB0 1-436)
# T1 sequence: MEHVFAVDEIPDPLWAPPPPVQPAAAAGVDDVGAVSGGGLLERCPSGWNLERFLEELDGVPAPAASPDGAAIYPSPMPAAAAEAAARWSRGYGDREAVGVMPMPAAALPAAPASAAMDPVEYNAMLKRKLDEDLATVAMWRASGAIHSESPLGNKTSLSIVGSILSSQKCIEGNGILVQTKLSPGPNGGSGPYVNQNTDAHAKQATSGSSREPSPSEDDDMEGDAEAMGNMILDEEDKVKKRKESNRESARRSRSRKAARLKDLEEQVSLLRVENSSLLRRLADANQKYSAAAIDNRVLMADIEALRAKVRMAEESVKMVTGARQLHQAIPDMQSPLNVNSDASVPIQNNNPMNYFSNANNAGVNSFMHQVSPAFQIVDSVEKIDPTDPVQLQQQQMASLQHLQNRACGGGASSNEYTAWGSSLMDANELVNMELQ
# Assay: protein-binding microarray (RPBM); PBS, 2% BSA, 51.3 ng/ul salmon testes DNA, 50 uM zinc acetate, 200 nM TF, 25 C, 1 h; high values mean tight binding
# Details: protein: recombinant; tags: N-terminal polyhistidine and DsRed monomer fusion (pET32a); chain copies: 2; label: CyDye5-dUTP incorporated in the synthesized complementary strand; 3' TTTTT single-stranded linker to array surface; dsDNA, one strand shown
# In short: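 Binding signal is reported as fluorescence intensity per feature (arbitrary units) from an Axon 4000B scanner. Incubation used 200 nM of each Ni–NTA-purified, N-terminally polyhistidine- and DsRed-fused transcription factor from E. coli BL21-CodonPlus on a double-stranded custom Agilent array for 1 h at 25 °C, with 50 µM zinc acetate in the buffer, followed by washing.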
row,Sequence,binding signal
1,AATTACTACCATGTTGTAAATGCTGGGAATCAATCAACGGCGGAGTCACCTAGTGCAG,26600 fluorescence intensity (a.u.)
2,CAGCAAGTAAACGGTCAAGATTCAAGCCGAAGAAGGGAGCCGGAGTCACCTAGTGCAG,3400 fluorescence intensity (a.u.)
3,TCGAGGTCCCCACCATCATCCACGTCGGCATCCGCAGCTTCGGAGTCACCTAGTGCAG,19900 fluorescence intensity (a.u.)
4,CAGGGCAGGGGCGGAGCTAGAATAAAATGAAGAGGGTTTCCGGAGTCACCTAGTGCAG,3310 fluorescence intensity (a.u.)
5,GTGTGGCGAACAACATTGTCACGTCATTAGTAATTCATGTCGGAGTCACCTAGTGCAG,4720 fluorescence intensity (a.u.)
6,ACATTTCTGTTATCCCGGTGGCTTTCTATCAATTTCGGCCCGGAGTCACCTAGTGCAG,3670 fluorescence intensity (a.u.)
7,ATAATATAACAACACACCTCACCCAAACCCATTCATCCATCGGAGTCACCTAGTGCAG,3160 fluorescence intensity (a.u.)
8,CCACACACGCACCCCTACACGCATGCTAGACCTATCAACTCGGAGTCACCTAGTGCAG,3680 fluorescence intensity (a.u.)
9,ATAACATCATTGTGGGATCCACCCTTATATGTTTGGTGATCGGAGTCACCTAGTGCAG,13800 fluorescence intensity (a.u.)
10,ACTAACAACGGCCGCAGCCCGCAGGCAGGTTGATCGATGACGGAGTCACCTAGTGCAG,4600 fluorescence intensity (a.u.)
11,GATGGGCGGTGATCCACGTACGGCAGCGTCGGCCCCGCGGCGGAGTCACCTAGTGCAG,6440 fluorescence intensity (a.u.)
12,CAAACTTCTAACCTTTTCATCACATCAAAACTTTTCTATACGGAGTCACCTAGTGCAG,63600 fluorescence intensity (a.u.)
13,GAGTACTACGAGAAGCAGTCGCGCCACATCCTCGACACCACGGAGTCACCTAGTGCAG,4330 fluorescence intensity (a.u.)
14,CCTTTTCCGGCTCCCCGACGAGTCACGTACACGTCAGTCTCGGAGTCACCTAGTGCAG,17200 fluorescence intensity (a.u.)
15,GAATTTCCCGTCGCCCGTCAGCTTCCATCTGATCTCGTCACGGAGTCACCTAGTGCAG,11200 fluorescence intensity (a.u.)
16,GCCTCTTAAGTTTGATGAAGATGATGTGGAAGAAATTGGACGGAGTCACCTAGTGCAG,6630 fluorescence intensity (a.u.)
17,GCCTTTCCGCCACCTCGGTACGTGTTCGACATGTTACGCACGGAGTCACCTAGTGCAG,3380 fluorescence intensity (a.u.)
18,AAAATATGACGCTACACTTTTCACTTGATTTCAATCACTTCGGAGTCACCTAGTGCAG,3810 fluorescence intensity (a.u.)
19,CACTGGTCATGGAGCTGAGGGCGTCACACTGCGATTTGCGCGGAGTCACCTAGTGCAG,4020 fluorescence intensity (a.u.)
20,ATCCTGACTCCCTGAGTATGACAACGTTTGTTAAACTGTGCGGAGTCACCTAGTGCAG,3760 fluorescence intensity (a.u.)
21,CATAAATGAGATCCAGTGACGGCATGAGCATGTCCCAATTCGGAGTCACCTAGTGCAG,24900 fluorescence intensity (a.u.)
22,CAAACTCGTCAGCAATTCAGGCTGATATGATCTCATTTCACGGAGTCACCTAGTGCAG,4110 fluorescence intensity (a.u.)
23,GCAGTGGTGCGTGTGAGTTGTGACTCTCCACTTCCGTGTACGGAGTCACCTAGTGCAG,5660 fluorescence intensity (a.u.)

# Single entries from the list.
# Under binding signal, ACTAACAACGGCCGCAGCCCGCAGGCAGGTTGATCGATGACGGAGTCACCTAGTGCAG has the entry 4600 fluorescence intensity (a.u.)
# Under binding signal, GATGGGCGGTGATCCACGTACGGCAGCGTCGGCCCCGCGGCGGAGTCACCTAGTGCAG has the entry 6440 fluorescence intensity (a.u.)
